No constants are given. Whether binding was seen depends on the method and setting. In cells and extracts the contact can be indirect. Binding can be weak; no strength is given. Where a sequence is shown, tags or fusion partners need not be part of it.

The target in this assay is T1, GST-tagged RAPSYN (expressed in HEK293T cells) (human) (UniProt Q13702).
T1 sequence: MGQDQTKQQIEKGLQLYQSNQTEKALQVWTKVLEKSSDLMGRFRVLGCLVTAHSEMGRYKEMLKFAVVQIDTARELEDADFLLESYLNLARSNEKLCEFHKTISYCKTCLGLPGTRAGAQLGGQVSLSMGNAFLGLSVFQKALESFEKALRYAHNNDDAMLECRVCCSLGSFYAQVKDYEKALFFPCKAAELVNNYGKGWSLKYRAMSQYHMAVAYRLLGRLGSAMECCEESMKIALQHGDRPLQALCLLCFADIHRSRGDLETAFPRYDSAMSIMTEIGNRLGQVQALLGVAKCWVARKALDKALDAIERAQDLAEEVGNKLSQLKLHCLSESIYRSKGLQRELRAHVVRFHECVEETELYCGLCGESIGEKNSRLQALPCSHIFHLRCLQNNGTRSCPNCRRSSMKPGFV
The experiment in a line: co-IP; HEK293T cells transfected with His-tagged BCR-ABL (full-length or truncated) and GST-tagged RAPSYN; immunoprecipitation of His or GST, immunoblots of GST and His; NP-40 lysis buffer.

With “His-tagged truncated BCR-ABL Δ1 (aa 1–927) (human) (domain or fragment)”, the binding result is listed as “binds”.

Source of the values: publication PMC11168747.
